Reference: PubChem BioAssay AID1259405 (NCATS, 2018)

- Test: 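Silenced genes that increase secreted GFP made by CHO cells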 (primary screen)
- Cells: Chinese hamster CHO-K1 ovary cells with stable secreted eGFP expression
- Reagent: single siRNA against mouse genes, 0.8 pmol siRNA per well (2 µl of 400 nM stock)
- Time to read-out: 3 days
- Measured: 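Percent of the per-plate non-targeting control median for intracellular GFP per well by laser scanning cytometry and for cell viability by ATP luminescence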
- Direction: GFP, % of control: higher = more GFP per well, higher productivity; viability (ATP), % of control: higher = more viable cells (more ATP)
- Active means: 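Called active when intracellular GFP, relative to negative control, is at or above 120%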
Here is one part, drawn at random, of about 50,000 reagents tested. Of all reagents, about 4,000 (8%) are marked active. 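Mouse siRNA library applied to hamster cells; one well for each siRNA.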 The numbers tell different reagents against one gene apart.

no.	target	reagent	GFP, % of control	viability (ATP), % of control	activity call
1	Zkscan1 (zinc finger with KRAB and SCAN domains 1)	1	74.1	102	inactive
2	Zkscan1 (zinc finger with KRAB and SCAN domains 1)	2	48.6	84.9	inactive
3	Zkscan1 (zinc finger with KRAB and SCAN domains 1)	3	72.2	99.3	inactive
4	Tmc7 (transmembrane channel-like gene family 7)	1	64	47.5	inactive
5	Tmc7 (transmembrane channel-like gene family 7)	2	60.4	33.8	inactive
6	Tmc7 (transmembrane channel-like gene family 7)	3	70.6	111	inactive
7	Gja1 (gap junction protein, alpha 1)	1	81.5	75.5	inactive
8	Gja1 (gap junction protein, alpha 1)	2	135	97.3	active
9	Gja1 (gap junction protein, alpha 1)	3	93.6	124	inactive
10	Fbxl9 (F-box and leucine-rich repeat protein 9)	1	74.3	57.4	inactive
11	Fbxl9 (F-box and leucine-rich repeat protein 9)	2	54.7	46.3	inactive
12	Fbxl9 (F-box and leucine-rich repeat protein 9)	3	59.7	73.6	inactive
13	Bag5 (BCL2-associated athanogene 5)	1	83.2	82	inactive
14	Bag5 (BCL2-associated athanogene 5)	2	99.3	67.5	inactive
15	Bag5 (BCL2-associated athanogene 5)	3	50.1	64.1	inactive
16	Hoxd1 (homeobox D1)	1	93.9	99.8	inactive
17	Hoxd1 (homeobox D1)	2	82.5	44.5	inactive
18	Hoxd1 (homeobox D1)	3	63.5	52.6	inactive
19	Piwil1 (piwi-like RNA-mediated gene silencing 1)	1	83.1	72.1	inactive
20	Piwil1 (piwi-like RNA-mediated gene silencing 1)	2	101	94	inactive
21	Piwil1 (piwi-like RNA-mediated gene silencing 1)	3	86.3	81.6	inactive
22	Rfx5 (regulatory factor X, 5 (influences HLA class II expression))	1	45.2	102	inactive
23	Rfx5 (regulatory factor X, 5 (influences HLA class II expression))	2	117	88.7	inactive
24	Rfx5 (regulatory factor X, 5 (influences HLA class II expression))	3	126	105	active
25	Clpp	1	72.2	103	inactive
26	Clpp	2	72.2	72.4	inactive
27	Clpp	3	66.7	77	inactive
28	Osbpl3 (oxysterol binding protein-like 3)	1	59.6	78.3	inactive
29	Osbpl3 (oxysterol binding protein-like 3)	2	86.3	85.1	inactive
30	Osbpl3 (oxysterol binding protein-like 3)	3	95.7	104	inactive
31	Fmnl3 (formin-like 3)	1	47.4	57.2	inactive
32	Fmnl3 (formin-like 3)	2	82.1	81.9	inactive
33	Fmnl3 (formin-like 3)	3	95.5	68.8	inactive
34	Polr3e (polymerase (RNA) III (DNA directed) polypeptide E)	1	77.7	75.1	inactive
35	Polr3e (polymerase (RNA) III (DNA directed) polypeptide E)	2	63.1	67	inactive
36	Polr3e (polymerase (RNA) III (DNA directed) polypeptide E)	3	51.7	62.4	inactive
37	Fbxo38 (F-box protein 38)	1	60.8	77	inactive
38	Fbxo38 (F-box protein 38)	2	105	94.6	inactive
39	Fbxo38 (F-box protein 38)	3	104	66.7	inactive
40	Fam3a (FAM3 metabolism regulating signaling molecule A)	1	70.2	80.4	inactive
41	Fam3a (FAM3 metabolism regulating signaling molecule A)	2	55.1	46.1	inactive
42	Fam3a (FAM3 metabolism regulating signaling molecule A)	3	89.7	78.7	inactive
43	Tacr1 (tachykinin receptor 1)	1	70.5	70.1	inactive
44	Tacr1 (tachykinin receptor 1)	2	81.4	88.8	inactive
45	Tacr1 (tachykinin receptor 1)	3	78.6	86.1	inactive
46	Gm10413 (predicted gene 10413)	1	80.5	67.6	inactive
47	Gm10413 (predicted gene 10413)	2	74.2	60.4	inactive
48	Gm10413 (predicted gene 10413)	3	96.1	70.2	inactive
49	Acbd5 (acyl-Coenzyme A binding domain containing 5)	1	65.1	55.2	inactive
50	Acbd5 (acyl-Coenzyme A binding domain containing 5)	2	48.9	60.8	inactive
51	Acbd5 (acyl-Coenzyme A binding domain containing 5)	3	64	67	inactive
52	Iffo1 (intermediate filament family orphan 1)	1	88	68.5	inactive
53	Iffo1 (intermediate filament family orphan 1)	2	137	83.2	active
54	Iffo1 (intermediate filament family orphan 1)	3	95.8	101	inactive
55	Zfp772 (zinc finger protein 772)	1	33.9	44.1	inactive
56	Zfp772 (zinc finger protein 772)	2	94.5	73.9	inactive
57	Zfp772 (zinc finger protein 772)	3	98	84.5	inactive
58	Rex2 (reduced expression 2)	1	55	64.8	inactive
59	Rex2 (reduced expression 2)	2	63.4	72.8	inactive
60	Rex2 (reduced expression 2)	3	104	95.6	inactive
61	Cspg5 (chondroitin sulfate proteoglycan 5)	1	79.2	59.8	inactive
62	Cspg5 (chondroitin sulfate proteoglycan 5)	2	118	74.2	inactive
63	Cspg5 (chondroitin sulfate proteoglycan 5)	3	68.4	88.6	inactive
64	Efs (embryonal Fyn-associated substrate)	1	116	85.6	inactive
65	Efs (embryonal Fyn-associated substrate)	2	107	92.3	inactive
66	Fezf2 (Fez family zinc finger 2)	1	67.5	65.1	inactive
67	Fezf2 (Fez family zinc finger 2)	2	62.6	74.2	inactive
68	Fezf2 (Fez family zinc finger 2)	3	51.4	45	inactive
69	Vmn1r66 (vomeronasal 1 receptor 66)	1	99.2	87.4	inactive
70	Vmn1r66 (vomeronasal 1 receptor 66)	2	95.3	77.9	inactive
71	Vmn1r66 (vomeronasal 1 receptor 66)	3	65.7	44.8	inactive
72	Zfp111 (zinc finger protein 111)	1	106	111	inactive
73	Zfp111 (zinc finger protein 111)	2	127	78	active
74	Zfp111 (zinc finger protein 111)	3	46.9	49.1	inactive
75	Or1aa2 (olfactory receptor family 1 subfamily AA member 2)	1	53.7	60.8	inactive
76	Or1aa2 (olfactory receptor family 1 subfamily AA member 2)	2	51.2	44.1	inactive
77	Or1aa2 (olfactory receptor family 1 subfamily AA member 2)	3	61.1	77	inactive
78	Rdh12 (retinol dehydrogenase 12)	1	101	85.8	inactive
79	Rdh12 (retinol dehydrogenase 12)	2	56.2	70.2	inactive
80	Rdh12 (retinol dehydrogenase 12)	3	61	95.1	inactive
81	Abcc8 (ATP-binding cassette, sub-family C member 8)	1	64.7	48.7	inactive
82	Abcc8 (ATP-binding cassette, sub-family C member 8)	2	99.4	78.6	inactive
83	Abcc8 (ATP-binding cassette, sub-family C member 8)	3	97.1	60.3	inactive
84	Amph (amphiphysin)	1	188	144	active
85	Amph (amphiphysin)	2	93.1	70.2	inactive

In a second layout: results already given
{"target": "Fam3a (FAM3 metabolism regulating signaling molecule A)", "reagent": 2, "GFP, % of control": 55.1, "viability (ATP), % of control": 46.1, "activity call": "inactive"}
{"target": "Fam3a (FAM3 metabolism regulating signaling molecule A)", "reagent": 3, "GFP, % of control": 89.7, "viability (ATP), % of control": 78.7, "activity call": "inactive"}
{"target": "Tacr1 (tachykinin receptor 1)", "reagent": 1, "GFP, % of control": 70.5, "viability (ATP), % of control": 70.1, "activity call": "inactive"}
{"target": "Tacr1 (tachykinin receptor 1)", "reagent": 2, "GFP, % of control": 81.4, "viability (ATP), % of control": 88.8, "activity call": "inactive"}
{"target": "Tacr1 (tachykinin receptor 1)", "reagent": 3, "GFP, % of control": 78.6, "viability (ATP), % of control": 86.1, "activity call": "inactive"}
{"target": "Gm10413 (predicted gene 10413)", "reagent": 1, "GFP, % of control": 80.5, "viability (ATP), % of control": 67.6, "activity call": "inactive"}
{"target": "Gm10413 (predicted gene 10413)", "reagent": 2, "GFP, % of control": 74.2, "viability (ATP), % of control": 60.4, "activity call": "inactive"}
{"target": "Gm10413 (predicted gene 10413)", "reagent": 3, "GFP, % of control": 96.1, "viability (ATP), % of control": 70.2, "activity call": "inactive"}
{"target": "Acbd5 (acyl-Coenzyme A binding domain containing 5)", "reagent": 1, "GFP, % of control": 65.1, "viability (ATP), % of control": 55.2, "activity call": "inactive"}
{"target": "Acbd5 (acyl-Coenzyme A binding domain containing 5)", "reagent": 2, "GFP, % of control": 48.9, "viability (ATP), % of control": 60.8, "activity call": "inactive"}
{"target": "Acbd5 (acyl-Coenzyme A binding domain containing 5)", "reagent": 3, "GFP, % of control": 64, "viability (ATP), % of control": 67, "activity call": "inactive"}
